Laboratory results: patent US20080167229A1
These are yes or no findings as the source states them, for the method shown. For part of these data: In cells and extracts the contact can be indirect. Some entries that bind do so weakly or less than the wild type. For part of these data: Tags and fused reporters may be left off the sequences shown. One block for each substance: values may come before it.

The chains behind the UniProt entries cited, without tags or fusion partners. Where a name states a change or a piece, a line headed by the entry shows the natural chain unless it says otherwise.
UniProt Q8TAF3: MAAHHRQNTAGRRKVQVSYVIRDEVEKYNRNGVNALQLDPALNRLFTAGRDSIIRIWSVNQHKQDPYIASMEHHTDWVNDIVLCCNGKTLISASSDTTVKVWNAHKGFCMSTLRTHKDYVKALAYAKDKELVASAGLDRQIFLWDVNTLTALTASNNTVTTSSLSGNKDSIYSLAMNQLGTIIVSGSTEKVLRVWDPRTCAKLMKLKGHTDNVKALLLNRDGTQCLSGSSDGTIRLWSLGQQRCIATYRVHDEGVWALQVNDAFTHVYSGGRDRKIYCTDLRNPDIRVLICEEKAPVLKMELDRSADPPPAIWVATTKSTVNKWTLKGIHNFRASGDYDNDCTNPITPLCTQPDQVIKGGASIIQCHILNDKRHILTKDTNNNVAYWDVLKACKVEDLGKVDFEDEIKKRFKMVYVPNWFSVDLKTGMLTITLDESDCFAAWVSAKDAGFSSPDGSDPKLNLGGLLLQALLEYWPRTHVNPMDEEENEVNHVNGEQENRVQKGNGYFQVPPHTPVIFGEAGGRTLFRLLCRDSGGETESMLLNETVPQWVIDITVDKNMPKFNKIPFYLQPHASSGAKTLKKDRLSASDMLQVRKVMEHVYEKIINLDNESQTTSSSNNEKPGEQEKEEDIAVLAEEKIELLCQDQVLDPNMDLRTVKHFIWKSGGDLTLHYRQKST

Tests used:
[1] = target: T1, N-terminal cleavage product of endogenous USP1 (human) (UniProt O94782); assay: anti-Flag immunoprecipitation from HeLa cells, anti-USP1 immunoblot
T1 sequence: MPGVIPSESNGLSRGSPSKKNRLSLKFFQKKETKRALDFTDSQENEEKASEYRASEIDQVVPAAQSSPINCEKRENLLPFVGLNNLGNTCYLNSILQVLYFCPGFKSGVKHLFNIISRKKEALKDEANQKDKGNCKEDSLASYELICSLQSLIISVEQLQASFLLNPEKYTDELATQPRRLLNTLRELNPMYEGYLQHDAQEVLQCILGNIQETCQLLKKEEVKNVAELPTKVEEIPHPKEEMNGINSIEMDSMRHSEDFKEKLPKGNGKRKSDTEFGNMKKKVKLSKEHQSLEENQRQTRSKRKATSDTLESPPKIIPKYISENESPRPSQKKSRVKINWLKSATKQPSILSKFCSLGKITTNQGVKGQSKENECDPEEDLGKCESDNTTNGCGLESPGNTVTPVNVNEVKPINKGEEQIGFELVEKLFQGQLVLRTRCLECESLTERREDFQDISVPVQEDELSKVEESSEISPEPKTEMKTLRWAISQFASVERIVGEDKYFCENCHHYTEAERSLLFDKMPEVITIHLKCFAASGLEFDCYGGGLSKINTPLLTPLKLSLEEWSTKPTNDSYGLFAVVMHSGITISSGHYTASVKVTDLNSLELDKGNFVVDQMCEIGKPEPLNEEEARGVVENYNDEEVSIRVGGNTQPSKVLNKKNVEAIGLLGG

[2] = target: T2, N-terminal cleavage product of c-Myc-tagged USP1 (rabbit reticulocyte lysate) (human) (UniProt O94782); assay: immunoprecipitation of UAF1 from rabbit reticulocyte lysate reactions
T2 sequence: T1 sequence

[3] = target: T1, N-terminal cleavage product of endogenous USP1 (human); assay: anti-Flag immunoprecipitation of Flag-HA-UAF1 from HeLa cells, anti-USP1 immunoblot [D]
[4] = target: T1, N-terminal cleavage product of endogenous USP1 (human); assay: anti-Flag immunoprecipitation from transiently transfected 293T cells, anti-USP1 immunoblot
[5] = target: T3, USP1 with N-terminal His tag, amino acids 670-71 changed from GG to AA (non-cleavable), purified from Sf9 cells (human) (UniProt O94782); assay: Ni-NTA co-purification through the His tag of USP1 from co-infected SF9 cells, then ion exchange and gel filtration
T3 sequence: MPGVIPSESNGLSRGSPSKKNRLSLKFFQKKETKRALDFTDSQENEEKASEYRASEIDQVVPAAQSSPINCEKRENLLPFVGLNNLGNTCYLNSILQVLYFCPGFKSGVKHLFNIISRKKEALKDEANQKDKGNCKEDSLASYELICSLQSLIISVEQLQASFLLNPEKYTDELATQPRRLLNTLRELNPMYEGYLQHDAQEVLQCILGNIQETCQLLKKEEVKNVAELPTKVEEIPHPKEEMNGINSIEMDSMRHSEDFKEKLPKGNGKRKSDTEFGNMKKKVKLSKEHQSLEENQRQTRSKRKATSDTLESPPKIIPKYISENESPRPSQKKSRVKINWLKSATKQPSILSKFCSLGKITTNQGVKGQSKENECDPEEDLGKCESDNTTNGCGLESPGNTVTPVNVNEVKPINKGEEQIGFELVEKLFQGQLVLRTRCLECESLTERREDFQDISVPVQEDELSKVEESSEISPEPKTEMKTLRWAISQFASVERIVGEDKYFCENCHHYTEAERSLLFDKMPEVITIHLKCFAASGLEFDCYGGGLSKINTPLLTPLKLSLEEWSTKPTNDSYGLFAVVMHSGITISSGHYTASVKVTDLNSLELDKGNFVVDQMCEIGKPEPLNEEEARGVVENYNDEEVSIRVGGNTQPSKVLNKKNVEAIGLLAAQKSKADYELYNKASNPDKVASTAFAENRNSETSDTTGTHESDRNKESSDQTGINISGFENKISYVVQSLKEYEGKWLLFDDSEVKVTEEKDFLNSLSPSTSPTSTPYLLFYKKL

- binding [1]: binds
- binding [2]: binds
- binding [3]: binds
Substance: Flag-HA-tagged UAF1, expressed in and purified from HeLa cells (from UniProt Q8TAF3 1-676)

- binding [4]: binds
Substance: Flag-tagged UAF1-Δ546-585 expressed in 293T cells (from UniProt Q8TAF3 1-676)

- binding [4]: binds
Substance: Flag-tagged UAF1-Δ635-677 expressed in 293T cells (from UniProt Q8TAF3 1-634)

- binding [5]: binds
Substance: UAF1 expressed in SF9 cells from pFastBac without the N-terminal His tag, Example 10 (from UniProt Q8TAF3 1-676)
